These are yes or no findings as the source states them, for the method shown. In cells and extracts the contact can be indirect. Some entries that bind do so weakly or less than the wild type.
Experiments:
[1] = target: GFP-tagged wild-type Tau (4R0N isoform) (UniProt P10636); assay: co-IP
[2] = target: GFP-tagged wild-type Tau (4R0N isoform) (UniProt P10636); assay: proximity ligation

Sequences of proteins named here, by UniProt entry; tags and fusion partners are left off. A change or cut given only in a name is not applied to a line headed by its entry. A line that says so, or that is headed by a name, gives the form on record, which may keep a tag or linker.
GFP-tagged wild-type Tau (4R0N isoform) (P10636, form named): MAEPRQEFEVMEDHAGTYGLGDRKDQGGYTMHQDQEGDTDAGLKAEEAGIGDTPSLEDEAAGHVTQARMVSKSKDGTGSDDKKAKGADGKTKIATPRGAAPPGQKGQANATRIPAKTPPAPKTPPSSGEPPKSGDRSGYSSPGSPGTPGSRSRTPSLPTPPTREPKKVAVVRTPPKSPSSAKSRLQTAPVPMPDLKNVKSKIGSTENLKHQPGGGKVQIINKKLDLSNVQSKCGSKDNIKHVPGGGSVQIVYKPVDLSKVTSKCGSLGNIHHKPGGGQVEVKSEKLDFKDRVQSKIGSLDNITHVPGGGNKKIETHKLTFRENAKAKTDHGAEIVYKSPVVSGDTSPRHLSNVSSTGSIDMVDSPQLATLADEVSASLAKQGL
UniProt O14964: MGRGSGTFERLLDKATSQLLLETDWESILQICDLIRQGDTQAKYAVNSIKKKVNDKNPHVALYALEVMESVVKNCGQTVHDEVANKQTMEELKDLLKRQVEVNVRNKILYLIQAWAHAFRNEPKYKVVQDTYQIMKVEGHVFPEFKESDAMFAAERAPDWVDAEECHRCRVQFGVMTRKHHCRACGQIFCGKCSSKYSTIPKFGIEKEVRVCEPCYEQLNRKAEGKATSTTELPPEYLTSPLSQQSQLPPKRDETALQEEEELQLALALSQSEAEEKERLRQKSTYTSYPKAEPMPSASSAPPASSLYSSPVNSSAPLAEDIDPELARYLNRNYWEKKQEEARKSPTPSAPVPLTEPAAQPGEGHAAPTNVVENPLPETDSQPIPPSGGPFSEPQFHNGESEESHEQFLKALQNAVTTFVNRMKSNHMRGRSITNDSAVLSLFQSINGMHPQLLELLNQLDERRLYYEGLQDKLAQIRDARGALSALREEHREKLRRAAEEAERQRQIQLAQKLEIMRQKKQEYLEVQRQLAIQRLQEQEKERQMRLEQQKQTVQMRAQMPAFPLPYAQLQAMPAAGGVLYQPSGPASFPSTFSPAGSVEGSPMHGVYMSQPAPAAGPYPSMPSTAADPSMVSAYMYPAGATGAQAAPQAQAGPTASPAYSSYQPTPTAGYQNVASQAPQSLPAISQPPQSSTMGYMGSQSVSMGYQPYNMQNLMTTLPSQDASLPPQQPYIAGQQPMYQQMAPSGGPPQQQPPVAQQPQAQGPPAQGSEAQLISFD

Row | binding [1] | binding [2] | Substance
1 | binds | – | FLAG-Hrs (from UniProt O14964 1-777)
2 | – | binds | mCh-tagged Hrs (from UniProt O14964 1-777)

Source: doi:10.1101/352724
